Reference: PubChem BioAssay AID488837 (National Center for Advancing Translational Sciences (NCATS), 2010)
Among all 330,000 compounds or so, about 20 (0.006%) were called active. Inconclusive means that the source gave no clear call. Such entries were picked first, then a sample of the others. Calls follow the shape of the dose curve; as a rule, active = well fitted inhibition curve with a large enough effect; inconclusive = small, poorly fitted or top-dose-only effect, or effect the other way; inactive = flat fitted curve, though single readings scatter. A potency beside an inconclusive call is a rough fit, not a confirmed value.

By UniProt entry, the sequences of proteins in these tests, tags left out. Where a name states a change or a piece, a line headed by the entry shows the natural chain unless it says otherwise.
UniProt O00167: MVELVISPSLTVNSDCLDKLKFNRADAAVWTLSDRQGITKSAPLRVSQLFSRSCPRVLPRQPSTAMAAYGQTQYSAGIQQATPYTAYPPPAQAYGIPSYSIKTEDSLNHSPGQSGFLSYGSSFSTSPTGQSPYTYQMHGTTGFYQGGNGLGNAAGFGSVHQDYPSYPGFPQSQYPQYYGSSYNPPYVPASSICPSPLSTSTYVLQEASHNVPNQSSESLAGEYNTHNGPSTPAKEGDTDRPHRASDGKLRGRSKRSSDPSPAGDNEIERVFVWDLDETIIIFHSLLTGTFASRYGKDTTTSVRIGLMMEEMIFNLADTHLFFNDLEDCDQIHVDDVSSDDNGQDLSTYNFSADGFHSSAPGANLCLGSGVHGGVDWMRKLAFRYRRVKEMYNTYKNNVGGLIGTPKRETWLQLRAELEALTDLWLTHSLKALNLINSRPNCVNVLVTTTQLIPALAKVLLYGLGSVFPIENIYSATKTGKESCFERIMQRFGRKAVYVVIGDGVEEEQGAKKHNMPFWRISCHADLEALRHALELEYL

Each compound was assayed against Protein phosphatase EYA2 (Homo sapiens) (UniProt O00167) (assay: qHTS Assay for Inhibitors of the Phosphatase Activity of Eya2). Details: recombinant Eya2, OMFP fluorescence dephosphorylation (OMFP is methylfluorescein phosphate); activity, negative = inhibition: at 76.9 µM (top of the series) unless noted.
Outline: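 Eya2 protein (added as 0.2 uM solution) was preincubated with compound for 10 min at ambient temperature in 50 mM HEPES pH 7.5, 50 mM NaCl, 5 uM MgCl2, 0.05% BSA, 1 mM DTT. OMFP (added at 50 uM) then reacted 10 min; fluorescence read at 485/525 nm.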
% is scaled to controls: 0 for no effect and ±100 for the full control effect; potency is read from the fitted curve at half-maximal effect.

| Structure (SMILES) | Potency | activity, negative = inhibition |
| --- | --- | --- |
| COc1ccc(C2C(C(C)=O)=C(C)N=c3s/c(=C\c4cc(C)n(C)c4C)c(=O)n32)c(OC)c1 (centres undefined) | inconclusive: 12.6 µM [activator, partial curve] |  |
| Oc1ccc(COC2CCCC2)c2cccnc12 | inactive |  |
| CCCC(C)c1nnc(NC(=O)C2CC(=O)N(c3ccc(OCC)cc3)C2)s1 (centres undefined) | inconclusive: 355 µM [inhibitor, partial curve] |  |
| COc1cc(/C=C2\C(=O)N(c3ccccc3)N=C2C)ccc1Oc1ccc([N+](=O)[O-])cc1[N+](=O)[O-] | inactive |  |
| COc1ccccc1COCC(O)CNCCc1ccc(C(F)(F)F)cc1 (centres undefined) | inconclusive: 100 µM [inhibitor, single point] |  |
| COc1ccc(N2CCN(c3ccc(N4C(=O)CC(C)C4=O)cc3[N+](=O)[O-])CC2)cc1 (centres undefined) | inconclusive: 200 µM [inhibitor, partial curve, poor fit] |  |
| COc1ccc(NC(=O)Cn2c(C)csc2=O)c(OC)c1 | inconclusive: 100 µM [inhibitor, single point] |  |
| COc1cc2[nH]c(=S)nc(NCc3ccccc3)c2cc1OC | inconclusive: 316 µM [inhibitor, partial curve] |  |
| Cc1nn(-c2nc(-c3ccco3)cc(C(F)(F)F)n2)c(C)c1Cl | inconclusive: 8.91 µM [inhibitor, partial curve] |  |
| CCOC(=O)N1CCN(CC(=O)Nc2cccc(Br)c2)CC1 | inactive |  |
| O=C(O)c1ccccc1C(=O)Nc1ccccc1[N+](=O)[O-] | inconclusive: 200 µM [inhibitor, partial curve] |  |
| O=C(CN1C(=O)c2ccccc2S1(=O)=O)c1ccc(F)cc1 | inconclusive: 100 µM [inhibitor, single point] |  |
| CCCCn1c(NC(=O)c2ccco2)c(S(=O)(=O)c2ccc(C)cc2)c2nc3ccccc3nc21 | inactive |  |
| CN(C)c1ccc(CNc2ccc3c(c2)ncn3C(C)(C)C)cc1 | inconclusive: 22.4 µM [inhibitor, single point] |  |
| COc1cc(Cc2cc(N)nc(N)n2)cc(OC)c1OC | inactive |  |
| C/C(=N/NC(N)=S)c1cc2ccc(O)cc2oc1=O | inconclusive: 112 µM [inhibitor, single point] |  |
| Cc1cccc(NC(=S)/N=C(\N)Nc2nc(C)c3cc(C)ccc3n2)c1 | inactive |  |
| COc1ccccc1-c1nnc2sc(-c3ccc(N(C)C)cc3)nn12 | inactive |  |
| CN(C)CCNC(=O)C(=O)NCC1CCCN1S(=O)(=O)c1cccs1 (centres undefined) | inconclusive: 14.1 µM [inhibitor, single point] |  |
| CC(Oc1ccc(F)cc1)c1nnc(SCC(=O)N(c2ccccc2)C2CCS(=O)(=O)C2)o1 (centres undefined) | inconclusive: 79.4 µM [inhibitor, single point] |  |
| CCSc1nnc(NC(=O)CSc2nccn2-c2cccc(C)c2C)s1 | inactive |  |
| CCOC(=O)CNC(=O)C1(/C=C/c2ccccc2)CC(=O)N1c1ccc(C)cc1 (centres undefined) | inconclusive: 89.1 µM [inhibitor, single point] |  |
| CS(=O)(=O)c1ccc(C(=O)OCC(=O)NC23CC4CC(CC(C4)C2)C3)cc1[N+](=O)[O-] | inactive |  |

Already shown: entries from further up.

| Structure (SMILES) | Potency | activity, negative = inhibition |
| --- | --- | --- |
| CCOC(=O)N1CCN(CC(=O)Nc2cccc(Br)c2)CC1 | inactive |  |
| O=C(O)c1ccccc1C(=O)Nc1ccccc1[N+](=O)[O-] | inconclusive: 200 µM [inhibitor, partial curve] |  |

A few values from the entries so far.
Under Potency, CC(Oc1ccc(F)cc1)c1nnc(SCC(=O)N(c2ccccc2)C2CCS(=O)(=O)C2)o1 (centres undefined) reads inconclusive: 79.4 µM [inhibitor, single point]
Under Potency, COc1ccccc1COCC(O)CNCCc1ccc(C(F)(F)F)cc1 (centres undefined) reads inconclusive: 100 µM [inhibitor, single point]

Next part.

| Structure (SMILES) | Potency | activity, negative = inhibition |
| --- | --- | --- |
| Cn1cc(C(=O)NCc2ccc(Cl)cc2)c(=O)c2cc(S(=O)(=O)N3CCOCC3)ccc21 | inconclusive: 100 µM [inhibitor, single point] |  |
| Cc1ccc2cc(C3C(C#N)=C(N)Oc4c3ccc3cccnc43)c(=O)[nH]c2c1 (centres undefined) | inactive |  |
| CCCCc1cc2c(cc1NC(=O)CN1CCCCC1)OCCO2 | inconclusive: 112 µM [inhibitor, partial curve, poor fit] |  |
| CCC1(c2ccc(OC)cc2)NC(=O)N(CC(=O)NC2CCCCC2C)C1=O (centres undefined) | inconclusive: 100 µM [inhibitor, single point] |  |
| Cc1cccc(OCC(O)Cn2c(N3CCCCC3)nc3c2c(=O)[nH]c(=O)n3C)c1 (centres undefined) | inconclusive: 100 µM [inhibitor, single point] |  |
| CCOc1cc(/C=C2\N=C(C)OC2=O)cc(Br)c1OCC(=O)OC | inconclusive: 112 µM [inhibitor, single point] |  |
| COc1cc(/C=C2\SC(=S)N(NC(=O)c3cccnc3)C2=O)ccc1O | inconclusive: 100 µM [inhibitor, single point] |  |
| COc1ccccc1N1CCN(S(=O)(=O)CCNC(=O)c2ccc(OC(C)C)cc2)CC1 | inconclusive: 100 µM [inhibitor, partial curve] |  |
| O=C1C2=C(C(=O)c3ccccc31)C1O[C@](CCCCN3C(=O)c4ccccc4C3=O)(Cc3c1ccc1ccccc31)O2 |  | inactive: -4.76% [at 15.4 µM] |
| O=C(CSc1nncc2ccccc12)Nc1ccccc1 | inactive |  |
| CCCc1ccc(OCCNC(=O)c2ccco2)cc1 | inconclusive: 22.4 µM [inhibitor, partial curve] |  |
| COCCn1c(SCC(=O)N2CC(=O)Nc3ccccc32)nc2ccccc2c1=O | inconclusive: 224 µM [inhibitor, partial curve, poor fit] |  |
| Cc1c(Br)c(C(=O)NNC(=O)c2ccc(C(C)(C)C)cc2)nn1C | inconclusive: 22.4 µM [inhibitor, single point] |  |
| O=C(c1cc2ccccc2oc1=O)N(Cc1cccc(Br)c1)C1CCS(=O)(=O)C1 (centres undefined) | inconclusive: 100 µM [inhibitor, single point] |  |
| O=C(/C=C/c1ccc(F)cc1)Nc1ccc(S(=O)(=O)Nc2ncccn2)cc1 | inconclusive: 22.4 µM [inhibitor, partial curve, poor fit] |  |
| Clc1ccc(OCCn2cnc(Cl)c2Cl)cc1 | inconclusive: 200 µM [inhibitor, partial curve, poor fit] |  |
| Nc1cc(N)nc(SCC(=O)NCc2ccco2)n1 | inconclusive: 20 µM [inhibitor, single point] |  |
| COc1ccc(Br)cc1/C=c1\sc2nc(-c3ccco3)nn2c1=O | inactive |  |
| O=C(N/N=C/c1ccccc1)c1n[nH]c2c1CCCC2 | inconclusive: 20 µM [inhibitor, single point] |  |
| COc1cc(C(=O)Nc2ccc(C(F)(F)F)cc2)ccc1OCC(=O)N1CCOCC1 | inactive |  |
| Cc1cccc(N=C2NC(=O)S/C2=C\c2ccco2)c1 | inactive |  |
| COc1ccccc1-n1c(SCC(=O)Nc2ccc(Br)cc2)nc(O)cc1=O | inconclusive: 112 µM [inhibitor, single point] |  |
| Cc1cc(C)c(NC(=S)N(CCN(C)C)C(C)c2cccnc2)c(C)c1 (centres undefined) | inactive |  |

| Structure (SMILES) | Potency | activity, negative = inhibition |
| --- | --- | --- |
| Cc1[nH]c(=O)[nH]c(=O)c1/C=N/NC(=O)[C@H](C)N | inconclusive: 100 µM [inhibitor, single point] |  |
| Cc1nc(N2CCN(c3ccc(Cl)cc3)CC2)[nH]c(=O)c1C | inconclusive: 17.8 µM [inhibitor, single point] |  |
| COc1ccc(-c2c[n+](CC(=O)N3c4ccccc4Sc4ccccc43)c3n2CCC3)cc1 | inconclusive: 112 µM [inhibitor, partial curve] |  |
| COc1cccc(NC2=Nc3cccc4cccc2c34)c1 | inactive |  |
| COc1ccc(OCC(O)Cn2c(N)nc3c2c(=O)[nH]c(=O)n3C)cc1 (centres undefined) | inconclusive: 35.5 µM [inhibitor, partial curve] |  |
| O=[N+]([O-])c1cccc(-c2ccn[nH]2)c1 | inconclusive: 89.1 µM [inhibitor, single point] |  |
| Cc1cc(C)c2cc(CN(Cc3ccco3)C(=S)NCC3CCCO3)c(=O)[nH]c2c1 (centres undefined) | inconclusive: 398 µM [inhibitor, partial curve] |  |
| O=C(CCl)Nc1ccccc1Sc1ccccc1 | inactive |  |
| Cc1ccccc1C1C(C#N)=C2N=C(N)c3c(sc4c3CCCCC4)N2C2=C1C(=O)CCC2 (centres undefined) | inactive |  |
| CCN(CC)S(=O)(=O)c1ccc(NC(=O)C2CCCO2)cc1 (centres undefined) | inconclusive: 17.8 µM [inhibitor, single point] |  |
| O=C1CCC(=O)N1CC(O)COc1ccccc1 (centres undefined) | inconclusive: 79.4 µM [inhibitor, single point] |  |
| COc1ccc2cc(C3c4cc(OC)c(OC)cc4CCN3C(=O)c3ccco3)c(=O)[nH]c2c1 (centres undefined) | inconclusive: 112 µM [inhibitor, single point] |  |
| COC(=O)c1[nH]c2cccc(OC)c2c1NC(=O)CCN1CCN(c2ccccc2OC)CC1 | inactive |  |
| O=C(OCN1C(=O)c2ccccc2C1=O)/C(=C\c1ccco1)NC(=O)c1ccccc1 | inconclusive: 14.1 µM [inhibitor, single point] |  |
| CCN(CC)CCOCCOc1ccc(Cl)c2ccccc12 | inconclusive: 1000 µM [inhibitor, partial curve, poor fit] |  |
| CCNc1ccccc(C(=O)/C=C/c2ccc3c(c2)OCO3)c1=O | inactive |  |
| CC(=O)N1N=C(c2ccc(C(C)(C)C)cc2)OC1(C)C | inactive |  |
| CCCN1C(=O)/C(=c2\sc3nc(=O)c(Cc4ccc(C)cc4)nn3c2=O)c2ccccc21 | inactive |  |
| COc1ccc(C(=O)NCC(=O)OCc2ccc(F)cc2)cc1 | inconclusive: 89.1 µM [inhibitor, single point] |  |
| O=C(COc1cc(F)ccc1[N+](=O)[O-])N1N=C(c2cccs2)CC1c1ccco1 (centres undefined) | inconclusive: 100 µM [inhibitor, single point] |  |
| CCCCN(C)C(=O)c1nc2ccccn2c1CN1CCC[C@H]1CO | inconclusive: 100 µM [inhibitor, single point] |  |
| CC(C)c1ccc(OCC(=O)Nc2ccc3oc(=O)ccc3c2)cc1 | inconclusive: 22.4 µM [inhibitor, single point] |  |
| COc1cc(NC(=O)c2nccnc2N)cc(C(=O)Nc2cccc(C(F)(F)F)c2)c1 | inconclusive: 20 µM [inhibitor, single point] |  |
